Measured values as given in paper PMC11261447.
No constants are given. Whether binding was seen depends on the method and setting. Binding seen in cells or lysates may run through a third protein. Some results given as binding are weak or reduced against the parent protein; the word gives no strength. Where a sequence is shown, tags or fusion partners need not be part of it.

Chains of the proteins cited; added tags and fusions are not shown.
UniProt Q12834: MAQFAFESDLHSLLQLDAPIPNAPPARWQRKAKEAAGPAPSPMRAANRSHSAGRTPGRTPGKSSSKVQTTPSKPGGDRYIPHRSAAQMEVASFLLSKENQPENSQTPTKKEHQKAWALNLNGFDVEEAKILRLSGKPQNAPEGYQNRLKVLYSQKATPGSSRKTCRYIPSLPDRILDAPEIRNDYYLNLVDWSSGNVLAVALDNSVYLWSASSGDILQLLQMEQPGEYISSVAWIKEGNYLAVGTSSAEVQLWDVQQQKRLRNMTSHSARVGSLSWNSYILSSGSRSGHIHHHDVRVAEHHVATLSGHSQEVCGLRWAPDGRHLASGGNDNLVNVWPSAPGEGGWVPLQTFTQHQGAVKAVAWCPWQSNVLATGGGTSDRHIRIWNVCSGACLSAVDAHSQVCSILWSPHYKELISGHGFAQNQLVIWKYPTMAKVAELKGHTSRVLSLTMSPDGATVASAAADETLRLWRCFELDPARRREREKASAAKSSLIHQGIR

Tests used:
recombinant GST-OGT = target: T1, recombinant GST-OGT (UniProt O15294); experiment: pull-down; lysates of cells transfected with HA-CDC20 incubated with recombinant GST-OGT; only the target purified
T1 sequence: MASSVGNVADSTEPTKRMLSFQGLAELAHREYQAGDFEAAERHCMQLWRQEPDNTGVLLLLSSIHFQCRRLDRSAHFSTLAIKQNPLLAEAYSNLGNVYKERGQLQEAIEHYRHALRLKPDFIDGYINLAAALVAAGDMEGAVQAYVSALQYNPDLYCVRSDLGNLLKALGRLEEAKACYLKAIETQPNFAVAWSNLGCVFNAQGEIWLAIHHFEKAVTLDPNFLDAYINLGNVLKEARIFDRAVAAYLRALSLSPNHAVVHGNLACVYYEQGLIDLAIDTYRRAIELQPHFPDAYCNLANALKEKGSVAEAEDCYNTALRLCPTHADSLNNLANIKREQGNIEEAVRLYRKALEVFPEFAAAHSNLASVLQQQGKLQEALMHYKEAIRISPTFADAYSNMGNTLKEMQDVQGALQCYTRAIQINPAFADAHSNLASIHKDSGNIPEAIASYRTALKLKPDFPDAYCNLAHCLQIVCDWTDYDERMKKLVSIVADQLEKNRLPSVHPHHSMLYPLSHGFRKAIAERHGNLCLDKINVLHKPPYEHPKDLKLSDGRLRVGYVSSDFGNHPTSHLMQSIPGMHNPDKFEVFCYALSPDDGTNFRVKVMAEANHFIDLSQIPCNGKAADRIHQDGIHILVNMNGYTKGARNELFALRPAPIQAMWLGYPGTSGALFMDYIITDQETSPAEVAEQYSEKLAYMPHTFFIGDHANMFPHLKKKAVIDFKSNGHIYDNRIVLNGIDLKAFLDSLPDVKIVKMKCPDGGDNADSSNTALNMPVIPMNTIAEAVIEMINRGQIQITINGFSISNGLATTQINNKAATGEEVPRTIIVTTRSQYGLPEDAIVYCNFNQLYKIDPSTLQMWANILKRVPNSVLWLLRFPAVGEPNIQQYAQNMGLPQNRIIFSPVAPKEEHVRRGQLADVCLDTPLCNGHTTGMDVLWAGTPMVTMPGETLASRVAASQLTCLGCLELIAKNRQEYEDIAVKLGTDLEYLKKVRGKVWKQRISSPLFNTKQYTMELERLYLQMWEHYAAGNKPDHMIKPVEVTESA

HA-OGT-WT = target: T2, HA-OGT-WT (UniProt O15294); experiment: co-IP; cells (293T where named) transfected with HA-OGT (WT or mutant) and Flag-CDC20; lysates immunoprecipitated and immunoblotted with the antibodies indicated
T2 sequence: T1 sequence

[1] = target: T3, O-linked β-N-acetylglucosamine (O-GlcNAc) transferase (OGT), endogenous (human (endogenous in 293T)) (UniProt O15294); experiment: co-IP; cells transfected with Flag-Cdc20, treated with nocodazole or not; endogenous OGT; immunoprecipitation and immunoblotting with the antibodies indicated
T3 sequence: T1 sequence

[2] = target: T3, O-linked β-N-acetylglucosamine (O-GlcNAc) transferase (OGT), endogenous (human (endogenous in 293T)); experiment: co-IP; endogenous proteins; lysates of 293T cells treated with nocodazole or not, immunoprecipitated with an anti-OGT antibody, immunoblotted with anti-OGT and anti-CDC20
Flag-CDC20 = Flag-CDC20 (UniProt Q12834); experiment: co-IP; cells (293T where named) transfected with HA-OGT (WT or mutant) and Flag-CDC20; lysates immunoprecipitated and immunoblotted with the antibodies indicated

Molecule: HA-CDC20 (from UniProt Q12834 1-499)
- binding (recombinant GST-OGT): binds

Molecule: Flag-CDC20 (from UniProt Q12834 1-499)
- binding (HA-OGT-WT): binds
- binding [1]: binds

Molecule: cell division cycle 20 (Cdc20), endogenous (from UniProt Q12834 1-499)
- binding [2]: binds

B1: HA-OGT-WT (enzyme, UniProt O15294 1-1046)
chain: T1 sequence
- binding (Flag-CDC20): binds
